From PMC13245411
No constants are given. Whether binding was seen depends on the method and setting. In cells and extracts the contact can be indirect. Some results given as binding are weak or reduced against the parent protein; the word gives no strength. Tags and fused reporters may be left off the sequences shown.

Chains of the proteins cited; added tags and fusions are not shown. Lines headed by an entry give the natural chain unless they say otherwise; changes in a name come on top. A line that says so, or that is headed by a name, gives the form on record, which may keep a tag or linker. Residues count along the entry.
UniProt Q5VXU9: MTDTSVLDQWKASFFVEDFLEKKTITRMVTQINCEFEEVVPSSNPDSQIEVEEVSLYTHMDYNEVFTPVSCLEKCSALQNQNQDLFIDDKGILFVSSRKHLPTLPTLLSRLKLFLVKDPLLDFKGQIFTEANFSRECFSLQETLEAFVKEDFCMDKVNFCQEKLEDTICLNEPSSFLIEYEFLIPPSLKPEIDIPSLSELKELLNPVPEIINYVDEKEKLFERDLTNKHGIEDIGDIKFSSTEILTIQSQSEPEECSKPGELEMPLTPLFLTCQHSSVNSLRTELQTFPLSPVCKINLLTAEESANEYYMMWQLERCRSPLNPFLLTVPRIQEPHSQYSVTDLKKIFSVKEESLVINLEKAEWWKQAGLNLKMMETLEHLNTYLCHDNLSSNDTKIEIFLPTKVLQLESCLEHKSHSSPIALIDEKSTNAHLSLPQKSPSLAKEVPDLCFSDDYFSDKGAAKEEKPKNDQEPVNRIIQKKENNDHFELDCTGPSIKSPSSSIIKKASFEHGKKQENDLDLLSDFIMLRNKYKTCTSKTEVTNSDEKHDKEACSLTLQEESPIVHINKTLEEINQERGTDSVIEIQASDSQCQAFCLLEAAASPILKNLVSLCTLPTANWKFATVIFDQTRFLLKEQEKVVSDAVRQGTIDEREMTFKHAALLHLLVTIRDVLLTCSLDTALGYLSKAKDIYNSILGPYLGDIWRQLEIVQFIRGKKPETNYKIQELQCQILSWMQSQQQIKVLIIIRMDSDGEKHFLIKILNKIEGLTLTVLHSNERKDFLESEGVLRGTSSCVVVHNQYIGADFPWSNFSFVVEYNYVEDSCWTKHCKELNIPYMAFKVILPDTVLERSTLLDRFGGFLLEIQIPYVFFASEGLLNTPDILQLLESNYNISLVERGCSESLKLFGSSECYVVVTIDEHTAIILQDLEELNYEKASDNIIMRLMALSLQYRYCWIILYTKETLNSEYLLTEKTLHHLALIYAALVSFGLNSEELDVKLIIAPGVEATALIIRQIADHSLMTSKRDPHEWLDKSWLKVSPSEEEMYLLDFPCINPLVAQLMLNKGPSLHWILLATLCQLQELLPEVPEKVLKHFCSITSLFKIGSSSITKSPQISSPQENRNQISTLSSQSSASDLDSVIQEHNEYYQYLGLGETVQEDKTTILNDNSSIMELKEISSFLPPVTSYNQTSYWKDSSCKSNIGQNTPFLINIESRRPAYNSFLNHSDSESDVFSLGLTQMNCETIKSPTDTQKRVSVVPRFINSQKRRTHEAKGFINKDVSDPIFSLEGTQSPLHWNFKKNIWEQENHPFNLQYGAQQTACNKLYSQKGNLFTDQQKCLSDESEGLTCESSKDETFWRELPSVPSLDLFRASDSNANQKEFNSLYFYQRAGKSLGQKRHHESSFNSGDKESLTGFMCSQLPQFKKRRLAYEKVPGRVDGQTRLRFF
human SHOC1 ΔF1 (aa1-288del): residues 289-1444 of Q5VXU9
human SHOC1 C-terminal 577–1444: residues 577-1444 of Q5VXU9
human SHOC1 ΔF2 (aa289-576del) (Q5VXU9, form named): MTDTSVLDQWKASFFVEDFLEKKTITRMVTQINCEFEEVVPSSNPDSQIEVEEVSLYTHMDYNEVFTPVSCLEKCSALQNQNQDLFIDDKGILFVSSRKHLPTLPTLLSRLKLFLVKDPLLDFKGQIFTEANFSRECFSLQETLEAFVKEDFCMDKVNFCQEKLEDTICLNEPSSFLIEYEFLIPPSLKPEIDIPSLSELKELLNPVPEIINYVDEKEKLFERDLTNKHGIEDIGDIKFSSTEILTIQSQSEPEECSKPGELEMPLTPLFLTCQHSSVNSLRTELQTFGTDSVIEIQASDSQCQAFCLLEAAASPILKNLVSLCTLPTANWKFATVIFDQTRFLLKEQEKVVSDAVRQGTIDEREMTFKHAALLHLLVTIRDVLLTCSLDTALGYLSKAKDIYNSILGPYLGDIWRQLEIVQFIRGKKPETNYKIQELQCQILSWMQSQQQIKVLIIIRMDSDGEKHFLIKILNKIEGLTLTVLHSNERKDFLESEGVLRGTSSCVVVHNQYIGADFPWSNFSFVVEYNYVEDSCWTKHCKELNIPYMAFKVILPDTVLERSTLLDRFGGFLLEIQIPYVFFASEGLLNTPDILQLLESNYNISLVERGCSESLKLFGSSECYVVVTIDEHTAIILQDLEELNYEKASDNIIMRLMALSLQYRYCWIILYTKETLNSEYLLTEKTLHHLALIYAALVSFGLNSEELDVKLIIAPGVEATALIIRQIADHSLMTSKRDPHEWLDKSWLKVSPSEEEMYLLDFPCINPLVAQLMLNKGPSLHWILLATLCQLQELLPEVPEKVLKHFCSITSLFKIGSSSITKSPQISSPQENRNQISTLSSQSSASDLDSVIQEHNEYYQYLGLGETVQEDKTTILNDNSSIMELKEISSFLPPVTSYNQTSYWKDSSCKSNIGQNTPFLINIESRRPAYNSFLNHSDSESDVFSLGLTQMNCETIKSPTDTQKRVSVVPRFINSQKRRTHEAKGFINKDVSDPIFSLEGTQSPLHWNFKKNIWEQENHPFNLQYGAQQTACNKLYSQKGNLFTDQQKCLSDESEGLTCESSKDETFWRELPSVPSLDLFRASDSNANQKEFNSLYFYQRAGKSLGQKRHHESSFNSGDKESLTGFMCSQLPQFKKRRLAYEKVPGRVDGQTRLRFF

Experiments:
Test in all cases: co-IP; tagged proteins co-expressed in pairs in HEK293T; immunoprecipitated from cell lysates by tag-specific antibodies, Western blot; IP lysis buffer 20 mM HEPES, 150 mM NaCl, 0.5% NP-40, 1 mM DTT, pH 7.3; 4°C (Fig. 1A, B; Supplementary Fig. S2C, D)
[1] = target: human FLAG-tagged SHOC1 (human) (UniProt Q5VXU9)
[2] = target: human SHOC1 C-terminal 577–1444 (human) (UniProt Q5VXU9)
[3] = target: human SHOC1 ΔF1 (aa1-288del) (human) (UniProt Q5VXU9)
[4] = target: human SHOC1 ΔF2 (aa289-576del) (human) (UniProt Q5VXU9)

B1: human MYC-tagged TEX11 (protein, UniProt Q8IYF3 1-940)
chain: MISAHCNLRLLCSSDSSASASQVAGTTEVVENLVTNDNSPNIPEAIDRLFSDIANINRESMAEITDIQIEEMAVNLWNWALTIGGGWLVNEEQKIRLHYVACKLLSMCEASFASEQSIQRLIMMNMRIGKEWLDAGNFLIADECFQAAVASLEQLYVKLIQRSSPEADLTMEKITVESDHFRVLSYQAESAVAQGDFQRASMCVLQCKDMLMRLPQMTSSLHHLCYNFGVETQKNNKYEESSFWLSQSYDIGKMDKKSTGPEMLAKVLRLLATNYLDWDDTKYYDKALNAVNLANKEHLSSPGLFLKMKILLKGETSNEELLEAVMEILHLDMPLDFCLNIAKLLMDHERESVGFHFLTIIHERFKSSENIGKVLILHTDMLLQRKEELLAKEKIEEIFLAHQTGRQLTAESMNWLHNILWRQAASSFEVQNYTDALQWYYYSLRFYSTDEMDLDFTKLQRNMACCYLNLQQLDKAKEAVAEAERHDPRNVFTQFYIFKIAVIEGNSERALQAIITLENILTDEESEDNDLVAERGSPTMLLSLAAQFALENGQQIVAEKALEYLAQHSEDQEQVLTAVKCLLRFLLPKIAEMPESEDKKKEMDRLLTCLNRAFVKLSQPFGEEALSLESRANEAQWFRKTAWNLAVQCDKDPVMMREFFILSYKMSQFCPSDQVILIARKTCLLMAVAVDLEQGRKASTAFEQTMFLSRALEEIQTCNDIHNFLKQTGTFSNDSCEKLLLLYEFEVRAKLNDPLLESFLESVWELPHLETKTFETIAIIAMEKPAHYPLIALKALKKALLLYKKEEPIDISQYSKCMHNLVNLSVPDGASNVELCPLEEVWGYFEDALSHISRTKDYPEMEILWLMVKSWNTGVLMFSRSKYASAEKWCGLALRFLNHLTSFKESYETQMNMLYSQLVEALSNNKGPVFHEHGYWSKSD
B1 was tested, and the binding [1] was “binds”, the binding [2] was “no binding” and the binding [3] was “no binding”. The binding [4] was “no binding”.
